In PubChem BioAssay AID1259354 (Paczesny and Yang Labs, IUPUI and University of Michigan, 2018):
The campaign covered roughly 78,000 compounds. About 1,800 (2.3%) were called active. Inconclusive means that the source gave no clear call. Such entries were picked first, then a sample of the others. No stated cut-off is given here; in the data, active means inhibition above about 30%; inconclusive means mostly about 10% to 28%; inactive means weaker than that.

By UniProt entry, the sequences of proteins in these tests, tags left out. Where a name states a change or a piece, a line headed by the entry shows the natural chain unless it says otherwise.
UniProt Q01638: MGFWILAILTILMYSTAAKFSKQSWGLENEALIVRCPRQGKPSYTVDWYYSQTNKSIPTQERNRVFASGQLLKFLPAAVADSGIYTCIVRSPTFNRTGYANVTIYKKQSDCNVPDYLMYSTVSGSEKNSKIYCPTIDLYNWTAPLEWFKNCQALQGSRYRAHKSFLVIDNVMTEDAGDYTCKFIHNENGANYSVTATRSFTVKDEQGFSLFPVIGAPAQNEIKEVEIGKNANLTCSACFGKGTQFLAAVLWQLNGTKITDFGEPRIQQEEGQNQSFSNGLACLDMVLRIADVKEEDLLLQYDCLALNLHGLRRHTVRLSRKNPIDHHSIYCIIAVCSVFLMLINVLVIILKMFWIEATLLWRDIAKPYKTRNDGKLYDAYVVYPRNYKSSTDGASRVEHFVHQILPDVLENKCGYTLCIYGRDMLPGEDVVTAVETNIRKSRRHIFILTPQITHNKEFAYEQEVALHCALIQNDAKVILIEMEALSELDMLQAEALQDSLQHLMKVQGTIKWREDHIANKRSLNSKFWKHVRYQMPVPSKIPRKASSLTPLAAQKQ

The molecules below were run against Interleukin-1 receptor-like 1 (Homo sapiens) (UniProt Q01638) (assay: blocks human ST2 binding to IL-33, primary screen, biochemical, AlphaLISA (AID 1259354)). Details: AlphaLISA ST2-Fc/biotin-IL-33 interaction, 1 h; at 17 µM, hits give high values.

| SMILES | inhibition |
| --- | --- |
| N#CC1(C#N)[C@@H](c2ccccc2)O[C@@]23CCCC[C@@H]2[C@]1(C#N)C(=N)O3 | inconclusive: 18% |
| CC1=C(C(N)=O)C(c2ccc(C)cc2)n2nc(SCc3ccccc3F)nc2N1 (stereo unspecified) | inconclusive: 25% |
| Cn1c(CCc2ccccc2NC(=O)C2CCCN(S(=O)(=O)N3CCCC3)C2)nc2ccccc21 (stereo unspecified) | inconclusive: 12% |
| CC1=C(C(=O)Nc2ccc(C)cn2)C(c2ccsc2)C2=C(CCCC2=O)N1 (stereo unspecified) | inconclusive: 10% |
| O=C(C[C@@H]1O[C@H](CNS(=O)(=O)c2ccc(Cl)cc2)[C@@H](O)[C@H]1O)Nc1ccccc1 | inconclusive: 23% |
| CCOc1ccc2cc(C3CC(c4ccc(Br)cc4)=NN3C(=O)CC)c(=O)[nH]c2c1 (stereo unspecified) | inactive |
| CCc1c(C)cc(C(=O)N2CCC3(CCNC(=O)CC3)CC2)c(=O)n1C | inactive |
| COc1ccccc1CNC(=O)c1cccc(Cl)c1 | inactive |
| O=C(N[C@H]1CCN2C(=O)N(c3cccc(C(F)(F)F)c3)C(=O)[C@@H]2C1)c1ccncc1 | active: 56% |
| CC12CC(NC(=O)N1c1ccc(C(=O)NCc3ccco3)cc1)c1ccccc1O2 (stereo unspecified) | inactive |
| COc1ccc(CC(=O)NCC(=O)n2nc(C)cc2C)cc1 | inconclusive: 18% |
| CCOc1ccc(NC(=O)CN(c2cccc(Br)c2)S(C)(=O)=O)cc1 | inconclusive: 10% |
| Cc1ccccc1CN1CCC(CN(CC2CCCO2)C(=O)c2ccc(N(C)C)cc2)CC1 (stereo unspecified) | inactive |
| COc1cccc(CNC(=O)C2(S(=O)(=O)c3ccc(Cl)cc3)CC2)c1 | inconclusive: 10% |
| COc1ccc(C2SCCN2S(=O)(=O)c2cccc([N+](=O)[O-])c2)cc1OC (stereo unspecified) | inactive |
| COc1ccc(C2OC(=O)C(C)=C(OC(=O)c3ccccc3)C2(C)C)cc1OC (stereo unspecified) | inconclusive: 22% |
| Oc1cccc2c1Cc1ccccc1-2 | inconclusive: 22% |
| CCC(=O)N1c2ccccc2NC2=C(C(=O)CCC2)C1c1c(Cl)cccc1Cl (stereo unspecified) | inconclusive: 26% |
| CC(=O)Nc1ccc(-c2nccn2C(C)c2ccc(-n3cncn3)cc2)cc1 (stereo unspecified) | inactive |
| O=C(c1ccncc1)N1CC[C@H](c2nnc(-c3ccncc3)o2)C1 | inconclusive: 17% |
| CCN1CCCC1CNC(=O)CSc1c2c(nc3ccc(Cl)cc13)CCCC2 (stereo unspecified) | inconclusive: 12% |
| O=C1CC(Nc2ccc(N3CCOCC3)cc2)C(=O)N1c1ccc2c(c1)OCO2 (stereo unspecified) | active: 55% |
| CC(=O)Nc1ccc(S(=O)(=O)N(CC2C(C)C=C(C)CC2C)C2CCCCC2)cc1 (stereo unspecified) | active: 32% |

Shown as tab-separated lines: part of the list above
SMILES	inhibition
CCc1c(C)cc(C(=O)N2CCC3(CCNC(=O)CC3)CC2)c(=O)n1C	inactive
Cc1ccccc1CN1CCC(CN(CC2CCCO2)C(=O)c2ccc(N(C)C)cc2)CC1 (stereo unspecified)	inactive
CC(=O)Nc1ccc(-c2nccn2C(C)c2ccc(-n3cncn3)cc2)cc1 (stereo unspecified)	inactive
O=C1CC(Nc2ccc(N3CCOCC3)cc2)C(=O)N1c1ccc2c(c1)OCO2 (stereo unspecified)	active: 55%

Following part:

| SMILES | inhibition |
| --- | --- |
| Cc1cc(C)c2c(=O)[nH]c(SCC(=O)Nc3ccccc3)nc2n1 | inconclusive: 10% |
| O=C(c1cc2ccccc2oc1=O)n1cc([N+](=O)[O-])cn1 | inconclusive: 11% |
| CC(C)CCOC(=O)C1C2C=CC3(CN(Cc4cccs4)C(=O)C13)O2 (stereo unspecified) | inactive |
| O=C(Nc1ccccc1Br)C1CC(=O)N(c2ccc(Br)cc2)C1 (stereo unspecified) | inactive |
| OC1CCN(Cc2c(Cl)cccc2Cl)CC1 | inconclusive: 18% |
| CCOc1ccc(C2CC(c3ccc(CC)cc3)n3ncnc3N2)cc1 (stereo unspecified) | inconclusive: 10% |
| O=C(NO)C12CCCC(CCC1)C2 | inconclusive: 12% |
| COc1ccc(NC(=O)CSc2nc3ccc(N)cc3s2)cc1 | inconclusive: 12% |
| CN1C(=O)C(=O)c2cc(Br)ccc21 | inconclusive: 13% |
| Fc1cccc(CC2CN(Cc3cn[nH]c3-c3ccccc3)CCO2)c1 (stereo unspecified) | inactive |
| O=C(CCc1nc2sc3c(c2c(=O)[nH]1)CCCC3)N1CCCCC1 | inconclusive: 10% |
| Cc1cc(-n2cnc3ccccc32)n2c(nc3ccccc32)c1C#N | inconclusive: 12% |
| CCOC(=O)c1nc(Nc2ccc(C)c(Cl)c2)c2ccccc2n1 | inactive |
| c1ccc(-c2nnn(Cc3nnc4n3CCCCC4)n2)cc1 | inconclusive: 12% |
| Cc1cc(Nc2ccccc2)nc(N2CCN(S(=O)(=O)c3cccc(F)c3)CC2)n1 | inconclusive: 27% |
| Cc1ccccc1OCC(=O)NCC(=O)O | inconclusive: 18% |
| Cc1cc2cc(NC(=O)c3ccc(CN4CC[C@H](O)C4)cc3)ccc2o1 | inactive |
| c1ccc(-c2noc(CN3CCN(C4CCCCC4)CC3)n2)cc1 | inconclusive: 14% |
| Cc1[nH]nc(SCC(=O)NCc2ccc(Cl)cc2)c1[N+](=O)[O-] | inconclusive: 16% |
| COc1ccccc1/C=C1\SC(=O)N(CC(=O)N2CCOCC2)C1=O | inconclusive: 24% |
| CC(C)c1ccc(C2N3CC4(C)CN2CC(C)(C3)C4=O)cc1 (stereo unspecified) | inconclusive: 18% |
| CC(=O)c1cc2c(cc1N)OCCO2 | inconclusive: 22% |
| CN1CCN(C(=O)c2cnc(N3CCN(c4ccccn4)CC3)c3ccccc23)CC1 | inactive |
